Laboratory results reported in PubChem BioAssay AID493236 (Broad Institute, 2011).
The shares of active, inactive and inconclusive entries below differ from those in the screen. Active and inactive are the calls of the source.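 The calls were made as follows: active = luminescence cut by more than half of the full-inhibition control window in a dose series; inconclusive = no clear call, values can overlap the other calls; inactive = signal rising instead of falling, or the rest.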

system: proteasome chymotrypsin-like activity (human); test: inhibition of cellular proteasome chymotrypsin-like cleavage – cell-based, U2OS, luminescence, dry powder, set 4, counter-screen for HIF pathway activator project, dose response (AID 493236); conditions: U2OS cells, Proteasome-Glo chymotrypsin luminescence; at 38 µM (top of the series)
Outline: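 System: U2OS cells. Input: 2,500 U2OS cells per well. Compound dosing: 8-point threefold dilution series, source stock top 16.5 mM. Timing: 24 h plating, 4 h compound, 2 h reagent. Technique: Proteasome-Glo luminescence. Evaluation: percent activity relative to MG132 and DMSO. Controls: MG132 (1 µM) and DMSO. Repeats: each compound tested in duplicate.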

Compound | activity change, negative = inhibition
Cc1ccc(CNc2nc(-c3ccccn3)nnc2-c2ccccc2)cc1C | inactive: -3.29%
CC(C)(C)c1ccc(CNc2nc(-c3ccccn3)nnc2-c2ccccc2)cc1 | inconclusive: -11.6%
c1ccc(-c2csc(Nc3nc(-c4ccccn4)nnc3-c3ccccc3)n2)cc1 | inconclusive: -0.465%
Cn1c(-c2ccccc2)cnc1NC(=O)c1cc(-c2ccccc2)on1 | inconclusive: -20.9%
c1ccc(-c2cccc(CNc3nc(-c4ccccn4)nnc3-c3ccccc3)c2)cc1 | inactive: 10.3%
CN(C)c1nc(-c2ccccn2)nnc1-c1ccccc1 | inconclusive: 2.46%
Cc1ccc(Nc2nc(-c3ccccn3)nnc2-c2ccccc2)cn1 | inactive: -0.351%
Cc1ccc(CNC(=O)c2cc(-c3ccccc3)on2)cc1 | inactive: 2.56%
O=C(Nc1ncc2ccccc2n1)c1cc(-c2ccccc2)on1 | inconclusive: -33.7%
CC(C)(C)CCNC(=O)c1cc(-c2ccccc2)on1 | inconclusive: -13.3%
Cc1cccc(Nc2nc(-c3ccccn3)nnc2-c2ccccc2)n1 | inactive: 6.59%
O=C(NCc1ccccc1)c1cc(-c2ccccc2)on1 | inconclusive: 1.71%
O=C(NC1CCc2ccccc2C1)c1cc(-c2ccccc2)on1 (configuration not stated) | inconclusive: 5.17%
C=CCNc1nc(-c2ccccn2)nnc1-c1ccccc1 | inconclusive: 0.924%
c1ccc(-c2nnc(-c3ccccn3)nc2N2CCC(N3CCOCC3)CC2)cc1 | inconclusive: -11.1%
O=C(NCC1CC1)c1cc(-c2ccccc2)on1 | inconclusive: -20.1%

Compound | activity change, negative = inhibition
O=C(c1cc(-c2ccccc2)on1)N1CCC(CO)CC1 | inconclusive: 7.47%
c1ccc(-c2nnc(-c3ccccn3)nc2N2CCC(c3ccccc3)C2)cc1 (configuration not stated) | inactive: 1.51%
Oc1ccc(CNC2CCc3ccccc32)c2cccnc12 (configuration not stated) | inconclusive: -3.63%
Cc1ccccc1CNC(=O)c1cc(-c2ccccc2)on1 | inconclusive: -21.4%
c1ccc(-c2nnc(-c3ccccn3)nc2NCC2CCOCC2)cc1 | inactive: -4.29%
Cn1c(NC(=O)c2cc(-c3ccccc3)on2)nc2ccccc21 | inconclusive: -8.56%
Cc1ccc(CNc2nc(-c3ccccn3)nnc2-c2ccccc2)cc1 | inconclusive: 6.92%
Cc1ccccc1CNc1nc(-c2ccccn2)nnc1-c1ccccc1 | inactive: 2.35%
O=C(Nc1cn2ccccc2n1)c1cc(-c2ccccc2)on1 | inconclusive: -6.83%
O=C(Nc1ncc(-c2ccccc2)o1)c1cc(-c2ccccc2)on1 | inactive: 1.92%
C[C@@H](Nc1nc(-c2ccccn2)nnc1-c1ccccc1)C1CCCCC1 | inconclusive: -7.34%
Cc1cccc(NC(=O)c2cc(-c3ccccc3)on2)n1 | inconclusive: -81.7%
OCC1CCN(Cc2ccc(O)c3ncccc23)CC1 | inconclusive: 3.29%
Oc1ccc(CNC2Cc3ccccc3C2)c2cccnc12 | inconclusive: -11.8%
O=C(c1cc(-c2ccccc2)on1)N1CCN(c2ccncc2)CC1 | inconclusive: 2.39%
COc1cccc(CNc2nc(-c3ccccn3)nnc2-c2ccccc2)c1 | inactive: 2.66%

A different layout for some results above:
Compound	activity change, negative = inhibition
OCC1CCN(Cc2ccc(O)c3ncccc23)CC1	inconclusive: 3.29%
COc1cccc(CNc2nc(-c3ccccn3)nnc2-c2ccccc2)c1	inactive: 2.66%
